# The other results are listed elsewhere or left out.
# B1: Intelectin-1a (Mus musculus) (protein)
# chain: AEWSHPQFEKAEENLDTNRWGNSFFSSLPRSCKEIKQEHTKAQDGLYFLRTKNGVIYQTFCDMTTAGGGWTLVASVHENNMRGKCTVGDRWSSQQGNRADYPEGDGNWANYNTFGSAEAATSDDYKNPGYFDIQAENLGIWHVPNKSPLHNWRKSSLLRYRTFTGFLQHLGHNLFGLYKKYPVKYGEGKCWTDNGPALPVVYDFGDARKTASYYSPSGQREFTAGYVQFRVFNNERAASALCAGVRVTGCNTEHHCIGGGGFFPEGNPVQCGDFASFDWDGYGTHNGYSSSRKITEAAVLLFYR
# Experiments:
# Assay in all cases: glycan array binding signal (z-score within array); higher = stronger binding
# Conditions in all cases: glycan notation: IUPAC condensed, linker removed
# Gal(b1-3)GlcNAc6S = biological target: Gal(b1-3)GlcNAc6S
# Procedure, shortened: (§1)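 Glycan array data were curated from 3228 arrays in the Consortium for Functional Glycomics database and kept only where the protein sequence was available. Glycan names were converted to IUPAC-condensed notation, and columns mapping to the same glycan were averaged. The binding signal is a within-array Z-score, averaged across arrays of the same protein sequence at different concentrations or buffers and across linkers. Negative Z-scores can be read as non-binding.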
# [1] = biological target: Gal(b1-3)[Fuc(a1-4)]GlcNAc
# Procedure, shortened: as §1
# [2] = biological target: Gal(b1-3)[Fuc(a1-4)]GlcNAc(b1-2)Man(a1-3)[Gal(b1-3)[Fuc(a1-4)]GlcNAc(b1-2)Man(a1-6)]Man(b1-4)GlcNAc(b1-4)[Fuc(a1-6)]GlcNAc
# Procedure, shortened: as §1
# [3] = biological target: Gal(b1-3)[Fuc(a1-4)]GlcNAc(b1-3)Gal(b1-3)[Fuc(a1-4)]GlcNAc
# Procedure, shortened: as §1
# [4] = biological target: Gal(b1-3)[Fuc(a1-4)]GlcNAc(b1-3)Gal(b1-4)GlcNAc
# Procedure, shortened: as §1
# [5] = biological target: Gal(b1-3)[Fuc(a1-4)]GlcNAc(b1-3)Gal(b1-4)[Fuc(a1-3)]GlcNAc
# Procedure, shortened: as §1
# [6] = biological target: Gal(b1-3)[Fuc(a1-4)]GlcNAc(b1-6)GalNAc
# Procedure, shortened: as §1
# [7] = biological target: Gal(b1-3)[GlcNAc(b1-6)]GalNAc
# Procedure, shortened: as §1
# [8] = biological target: Gal(b1-3)[Neu5Ac(a2-6)]GalNAc
# Procedure, shortened: as §1
# [9] = biological target: Gal(b1-3)[Neu5Ac(a2-6)]GlcNAc(b1-6)Gal(b1-4)Glc
# Procedure, shortened: as §1
# [10] = biological target: Gal(b1-3)[Neu5Ac(b2-6)]GalNAc
# Procedure, shortened: as §1
# Gal(b1-4)Gal = biological target: Gal(b1-4)Gal
# Procedure, shortened: as §1
# [11] = biological target: Gal(b1-4)GalNAc(a1-3)[Fuc(a1-2)]Gal(b1-4)GlcNAc
# Procedure, shortened: as §1
# [12] = biological target: Gal(b1-4)GalNAc(b1-3)[Fuc(a1-2)]Gal(b1-4)GlcNAc
# Procedure, shortened: as §1
# Gal(b1-4)Glc = biological target: Gal(b1-4)Glc
# Procedure, shortened: as §1
# Gal(b1-4)Glc6S = biological target: Gal(b1-4)Glc6S
# Procedure, shortened: as §1
# Gal(b1-4)GlcNAc = biological target: Gal(b1-4)GlcNAc
# Procedure, shortened: as §1
# [13] = biological target: Gal(b1-4)GlcNAc(a1-6)Gal(b1-4)GlcNAc
# Procedure, shortened: as §1
# Gal(b1-4)GlcNAc(b1-2)Man = biological target: Gal(b1-4)GlcNAc(b1-2)Man
# Procedure, shortened: as §1
# [14] = biological target: Gal(b1-4)GlcNAc(b1-2)Man(a1-3)Man(b1-4)GlcNAc(b1-4)GlcNAc
# Procedure, shortened: as §1
# [15] = biological target: Gal(b1-4)GlcNAc(b1-2)Man(a1-3)[Gal(b1-4)GlcNAc(b1-2)Man(a1-6)]Man(b1-4)GlcNAc(b1-4)GlcNAc
# Procedure, shortened: as §1
# [16] = biological target: Gal(b1-4)GlcNAc(b1-2)Man(a1-3)[Gal(b1-4)GlcNAc(b1-2)Man(a1-6)]Man(b1-4)GlcNAc(b1-4)[Fuc(a1-6)]GlcNAc
# Procedure, shortened: as §1
# [17] = biological target: Gal(b1-4)GlcNAc(b1-2)Man(a1-3)[Gal(b1-4)GlcNAc(b1-2)][GlcNAc(b1-4)]Man(b1-4)GlcNAc(b1-4)GlcNAc
# Procedure, shortened: as §1
# [18] = biological target: Gal(b1-4)GlcNAc(b1-2)Man(a1-3)[GlcNAc(b1-2)Man(a1-6)]Man(b1-4)GlcNAc(b1-4)GlcNAc
# Procedure, shortened: as §1
# [19] = biological target: Gal(b1-4)GlcNAc(b1-2)Man(a1-3)[Man(a1-6)]Man(b1-4)GlcNAc(b1-4)GlcNAc
# Procedure, shortened: as §1
# [20] = biological target: Gal(b1-4)GlcNAc(b1-2)Man(a1-6)Man(b1-4)GlcNAc(b1-4)GlcNAc
# Procedure, shortened: as §1
# [21] = biological target: Gal(b1-4)GlcNAc(b1-2)Man(a1-6)[GlcNAc(b1-2)Man(a1-3)]Man(b1-4)GlcNAc(b1-4)GlcNAc
# Procedure, shortened: as §1
# [22] = biological target: Gal(b1-4)GlcNAc(b1-2)Man(a1-6)[Man(a1-3)]Man(b1-4)GlcNAc(b1-4)GlcNAc
# Procedure, shortened: as §1
# [23] = biological target: Gal(b1-4)GlcNAc(b1-2)[Gal(b1-4)GlcNAc(b1-4)]Man(a1-3)[Gal(b1-4)GlcNAc(b1-2)Man(a1-6)]Man(b1-4)GlcNAc(b1-4)GlcNAc
# Procedure, shortened: as §1
# [24] = biological target: Gal(b1-4)GlcNAc(b1-2)[Gal(b1-4)GlcNAc(b1-4)]Man(a1-3)[Gal(b1-4)GlcNAc(b1-2)[Gal(b1-4)GlcNAc(b1-6)]Man(a1-6)]Man(b1-4)GlcNAc(b1-4)GlcNAc
# Procedure, shortened: as §1
# [25] = biological target: Gal(b1-4)GlcNAc(b1-2)[Gal(b1-4)GlcNAc(b1-4)]Man(a1-3)[GlcNAc(b1-4)][Gal(b1-4)GlcNAc(b1-2)Man(a1-6)]Man(b1-4)GlcNAc(b1-4)GlcNAc
# Procedure, shortened: as §1
# [26] = biological target: Gal(b1-4)GlcNAc(b1-2)[Gal(b1-4)GlcNAc(b1-4)]Man(a1-3)[GlcNAc(b1-4)][Gal(b1-4)GlcNAc(b1-2)[Gal(b1-4)GlcNAc(b1-6)]Man(a1-6)]Man(b1-4)GlcNAc(b1-4)GlcNAc
# Procedure, shortened: as §1
# [27] = biological target: Gal(b1-4)GlcNAc(b1-2)[Gal(b1-4)GlcNAc(b1-4)]Man(a1-3)[GlcNAc(b1-4)][Gal(b1-4)GlcNAc(b1-2)[Gal(b1-4)GlcNAc(b1-6)]Man(a1-6)]Man(b1-4)GlcNAc(b1-4)[Fuc(a1-6)]GlcNAc
# Procedure, shortened: as §1
# [28] = biological target: Gal(b1-4)GlcNAc(b1-2)[Gal(b1-4)GlcNAc(b1-6)]Man(a1-6)[Gal(b1-4)GlcNAc(b1-2)Man(a1-3)]Man(b1-4)GlcNAc(b1-4)GlcNAc
# Procedure, shortened: as §1
# [29] = biological target: Gal(b1-4)GlcNAc(b1-2)[Gal(b1-4)GlcNAc(b1-6)]Man(a1-6)[Gal(b1-4)GlcNAc(b1-2)Man(a1-3)]Man(b1-4)GlcNAc(b1-4)[Fuc(a1-6)]GlcNAc
# Procedure, shortened: as §1
# [30] = biological target: Gal(b1-4)GlcNAc(b1-2)[Gal(b1-4)GlcNAc(b1-6)]Man(a1-6)[GlcNAc(b1-4)][Gal(b1-4)GlcNAc(b1-2)Man(a1-3)]Man(b1-4)GlcNAc(b1-4)GlcNAc
# Procedure, shortened: as §1
# [31] = biological target: Gal(b1-4)GlcNAc(b1-3)Gal(b1-3)GlcNAc
# Procedure, shortened: as §1
# [32] = biological target: Gal(b1-4)GlcNAc(b1-3)Gal(b1-4)Glc
# Procedure, shortened: as §1
# [33] = biological target: Gal(b1-4)GlcNAc(b1-3)Gal(b1-4)GlcNAc
# Procedure, shortened: as §1
# [34] = biological target: Gal(b1-4)GlcNAc(b1-3)Gal(b1-4)GlcNAc(b1-3)Gal(b1-4)GlcNAc
# Procedure, shortened: as §1
# [35] = biological target: Gal(b1-4)GlcNAc(b1-3)Gal(b1-4)[Fuc(a1-3)GlcNAc(b1-6)]Gal(b1-4)Glc
# Procedure, shortened: as §1
# [36] = biological target: Gal(b1-4)GlcNAc(b1-3)Gal(b1-4)[Fuc(a1-3)]GlcNAc(b1-3)Gal(b1-4)[Fuc(a1-3)]GlcNAc
# Procedure, shortened: as §1
# [37] = biological target: Gal(b1-4)GlcNAc(b1-3)GalNAc
# Procedure, shortened: as §1
# [38] = biological target: Gal(b1-4)GlcNAc(b1-3)[Gal(b1-4)GlcNAc(b1-6)]Gal(b1-4)GlcNAc
# Procedure, shortened: as §1
# [39] = biological target: Gal(b1-4)GlcNAc(b1-3)[Gal(b1-4)GlcNAc(b1-6)]GalNAc
# Procedure, shortened: as §1
binder,measurement,setting,value
B1,glycan array binding signal (z-score),Gal(b1-3)GlcNAc6S,-0.197
same,glycan array binding signal (z-score),[1],-0.153
same,glycan array binding signal (z-score),[2],0.779
same,glycan array binding signal (z-score),[3],-1.27
same,glycan array binding signal (z-score),[4],0.614
same,glycan array binding signal (z-score),[5],-1.16
same,glycan array binding signal (z-score),[6],2.02
same,glycan array binding signal (z-score),[7],0.85
same,glycan array binding signal (z-score),[8],0.131
same,glycan array binding signal (z-score),[9],0.312
same,glycan array binding signal (z-score),[10],-0.949
same,glycan array binding signal (z-score),Gal(b1-4)Gal,0.379
same,glycan array binding signal (z-score),[11],0.11
same,glycan array binding signal (z-score),[12],0.969
same,glycan array binding signal (z-score),Gal(b1-4)Glc,0.206
same,glycan array binding signal (z-score),Gal(b1-4)Glc6S,-0.292
same,glycan array binding signal (z-score),Gal(b1-4)GlcNAc,-0.531
same,glycan array binding signal (z-score),[13],-0.364
same,glycan array binding signal (z-score),Gal(b1-4)GlcNAc(b1-2)Man,-1.09
same,glycan array binding signal (z-score),[14],-0.473
same,glycan array binding signal (z-score),[15],-0.839
same,glycan array binding signal (z-score),[16],0.34
same,glycan array binding signal (z-score),[17],-0.539
same,glycan array binding signal (z-score),[18],-0.25
same,glycan array binding signal (z-score),[19],-0.594
same,glycan array binding signal (z-score),[20],0.843
same,glycan array binding signal (z-score),[21],-0.048
same,glycan array binding signal (z-score),[22],-0.71
same,glycan array binding signal (z-score),[23],0.052
same,glycan array binding signal (z-score),[24],0.316
same,glycan array binding signal (z-score),[25],-0.714
same,glycan array binding signal (z-score),[26],0.325
same,glycan array binding signal (z-score),[27],0.893
same,glycan array binding signal (z-score),[28],-0.153
same,glycan array binding signal (z-score),[29],0.195
same,glycan array binding signal (z-score),[30],0.058
same,glycan array binding signal (z-score),[31],-0.43
same,glycan array binding signal (z-score),[32],-0.53
same,glycan array binding signal (z-score),[33],-0.082
same,glycan array binding signal (z-score),[34],-0.664
same,glycan array binding signal (z-score),[35],-0.013
same,glycan array binding signal (z-score),[36],-0.972
same,glycan array binding signal (z-score),[37],-1.14
same,glycan array binding signal (z-score),[38],0.211
same,glycan array binding signal (z-score),[39],-0.574

# Reference: the supplement of paper PMC8728848
